By UniProt entry, the sequences of proteins in these tests, tags left out. Where a name states a change or a piece, a line headed by the entry shows the natural chain unless it says otherwise.
UniProt P05067: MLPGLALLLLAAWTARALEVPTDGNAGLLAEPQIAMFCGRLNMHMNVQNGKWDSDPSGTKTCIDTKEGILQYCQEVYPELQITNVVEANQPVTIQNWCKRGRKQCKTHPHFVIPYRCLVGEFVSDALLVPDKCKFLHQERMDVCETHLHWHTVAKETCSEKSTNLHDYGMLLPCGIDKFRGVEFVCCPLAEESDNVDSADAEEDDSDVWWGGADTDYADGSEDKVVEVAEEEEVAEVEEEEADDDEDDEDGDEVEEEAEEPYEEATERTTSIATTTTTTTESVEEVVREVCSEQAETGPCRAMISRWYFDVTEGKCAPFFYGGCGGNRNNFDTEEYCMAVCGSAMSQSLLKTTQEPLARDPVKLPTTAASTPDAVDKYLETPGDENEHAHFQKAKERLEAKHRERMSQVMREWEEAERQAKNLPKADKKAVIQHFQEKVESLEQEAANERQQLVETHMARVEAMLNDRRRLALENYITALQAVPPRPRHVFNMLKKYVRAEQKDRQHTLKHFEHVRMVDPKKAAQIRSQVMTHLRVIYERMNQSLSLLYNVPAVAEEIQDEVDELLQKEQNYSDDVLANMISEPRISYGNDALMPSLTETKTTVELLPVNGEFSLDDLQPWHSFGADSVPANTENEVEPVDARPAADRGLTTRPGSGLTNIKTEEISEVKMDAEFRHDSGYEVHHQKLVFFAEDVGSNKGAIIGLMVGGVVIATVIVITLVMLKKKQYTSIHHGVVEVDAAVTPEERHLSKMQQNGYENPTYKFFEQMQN

According to patent US12037375B2, “Protein variant and composition for treating neurodegenerative disease using the same” (KOREA UNIVERSITY RESEARCH AND BUSINESS FOUNDATION, priority 2021, dated 2024):

Test system: amyloid beta (1-42) fibrils
Assay: TEM morphological analysis and fiber length measurement of amyloid fibrils
Conditions: 10 uM, 37° C., 1 day, 205 rotations per minute

Substance	average length of fibrils
protein variant substituted with isoleucine 32, leucine 34, and alanine 42: amyloid beta (1-42) variant with isoleucine 32, leucine 34 and alanine 42 substituted with asparagine	199.3 nm
protein variant substituted with phenylalanine 19, leucine 34, and alanine 42: amyloid beta (1-42) variant with phenylalanine 19, leucine 34 and alanine 42 substituted with asparagine (DAEFRHDSGYEVHHQKLVNFAEDVGSNKGAIIGNMVGGVVIN; Amyloid-beta protein 42; UniProt P05067 672-713, looked up, variant F19N L34N A42N)	254.4 nm
